# Experimental data published in the supplement of paper PMC12823440, “Inhibitors supercharge kinase turnover through native proteolytic circuits” (Nature, 2025).
# By UniProt entry, the sequences of proteins in these tests, tags left out. Where a name states a change or a piece, a line headed by the entry shows the natural chain unless it says otherwise.
# UniProt P00519, whole entry: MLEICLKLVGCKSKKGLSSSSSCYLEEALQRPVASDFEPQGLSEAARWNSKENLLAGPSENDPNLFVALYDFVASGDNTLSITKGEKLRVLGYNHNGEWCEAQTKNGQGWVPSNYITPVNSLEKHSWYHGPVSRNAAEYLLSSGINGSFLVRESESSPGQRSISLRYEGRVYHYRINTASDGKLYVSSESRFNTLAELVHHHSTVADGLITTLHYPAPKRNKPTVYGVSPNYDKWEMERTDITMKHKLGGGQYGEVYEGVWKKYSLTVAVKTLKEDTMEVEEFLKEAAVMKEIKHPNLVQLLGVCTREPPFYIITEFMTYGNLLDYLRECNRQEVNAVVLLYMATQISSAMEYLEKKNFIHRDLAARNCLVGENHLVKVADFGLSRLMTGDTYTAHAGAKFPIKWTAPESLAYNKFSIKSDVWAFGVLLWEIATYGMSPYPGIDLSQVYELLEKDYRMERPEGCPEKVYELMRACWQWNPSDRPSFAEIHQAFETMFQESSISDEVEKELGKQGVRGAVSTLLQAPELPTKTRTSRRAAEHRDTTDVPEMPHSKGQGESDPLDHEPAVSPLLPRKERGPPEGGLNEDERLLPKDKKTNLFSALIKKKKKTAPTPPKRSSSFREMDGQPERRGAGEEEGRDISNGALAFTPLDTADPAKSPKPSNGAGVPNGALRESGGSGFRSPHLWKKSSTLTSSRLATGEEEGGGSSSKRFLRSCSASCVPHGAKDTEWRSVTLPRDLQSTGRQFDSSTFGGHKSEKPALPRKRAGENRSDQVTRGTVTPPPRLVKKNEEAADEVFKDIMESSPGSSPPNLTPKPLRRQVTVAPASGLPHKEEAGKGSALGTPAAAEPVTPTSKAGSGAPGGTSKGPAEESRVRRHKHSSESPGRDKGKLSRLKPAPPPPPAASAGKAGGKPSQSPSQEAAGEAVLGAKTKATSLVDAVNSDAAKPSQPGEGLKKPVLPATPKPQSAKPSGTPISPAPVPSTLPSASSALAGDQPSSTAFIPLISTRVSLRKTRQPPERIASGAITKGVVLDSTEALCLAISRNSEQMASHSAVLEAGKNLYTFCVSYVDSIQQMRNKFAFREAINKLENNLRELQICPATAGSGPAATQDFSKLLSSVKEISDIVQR
# UniProt P31749: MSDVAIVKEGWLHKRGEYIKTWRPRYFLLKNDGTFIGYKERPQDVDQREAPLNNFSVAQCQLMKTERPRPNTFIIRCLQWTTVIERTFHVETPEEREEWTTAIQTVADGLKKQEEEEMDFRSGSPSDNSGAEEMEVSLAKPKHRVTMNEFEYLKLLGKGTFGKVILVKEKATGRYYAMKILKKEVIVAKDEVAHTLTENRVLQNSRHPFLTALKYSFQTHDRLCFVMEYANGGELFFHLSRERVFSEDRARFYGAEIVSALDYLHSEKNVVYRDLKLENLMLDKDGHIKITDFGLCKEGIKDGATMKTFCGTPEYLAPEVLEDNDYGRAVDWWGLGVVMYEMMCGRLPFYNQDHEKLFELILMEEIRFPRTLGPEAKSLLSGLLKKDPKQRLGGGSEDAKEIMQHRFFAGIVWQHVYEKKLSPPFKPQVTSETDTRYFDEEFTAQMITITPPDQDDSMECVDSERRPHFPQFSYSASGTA
# UniProt P10398: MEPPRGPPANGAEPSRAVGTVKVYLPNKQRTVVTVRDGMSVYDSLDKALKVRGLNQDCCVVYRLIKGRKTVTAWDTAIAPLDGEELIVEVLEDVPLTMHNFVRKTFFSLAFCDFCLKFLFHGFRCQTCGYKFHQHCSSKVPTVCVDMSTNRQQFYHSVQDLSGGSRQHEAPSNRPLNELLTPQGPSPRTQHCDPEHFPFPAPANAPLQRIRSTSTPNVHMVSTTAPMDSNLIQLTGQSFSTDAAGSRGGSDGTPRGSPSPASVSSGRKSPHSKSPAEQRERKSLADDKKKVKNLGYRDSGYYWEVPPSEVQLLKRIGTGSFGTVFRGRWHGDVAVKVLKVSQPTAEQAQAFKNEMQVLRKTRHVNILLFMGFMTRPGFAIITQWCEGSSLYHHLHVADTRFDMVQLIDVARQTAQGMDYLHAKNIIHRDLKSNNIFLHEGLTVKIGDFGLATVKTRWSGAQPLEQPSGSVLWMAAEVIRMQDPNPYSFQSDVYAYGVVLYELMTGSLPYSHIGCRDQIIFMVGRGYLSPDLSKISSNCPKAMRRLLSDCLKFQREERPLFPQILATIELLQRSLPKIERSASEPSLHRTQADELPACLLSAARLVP
# UniProt O14965: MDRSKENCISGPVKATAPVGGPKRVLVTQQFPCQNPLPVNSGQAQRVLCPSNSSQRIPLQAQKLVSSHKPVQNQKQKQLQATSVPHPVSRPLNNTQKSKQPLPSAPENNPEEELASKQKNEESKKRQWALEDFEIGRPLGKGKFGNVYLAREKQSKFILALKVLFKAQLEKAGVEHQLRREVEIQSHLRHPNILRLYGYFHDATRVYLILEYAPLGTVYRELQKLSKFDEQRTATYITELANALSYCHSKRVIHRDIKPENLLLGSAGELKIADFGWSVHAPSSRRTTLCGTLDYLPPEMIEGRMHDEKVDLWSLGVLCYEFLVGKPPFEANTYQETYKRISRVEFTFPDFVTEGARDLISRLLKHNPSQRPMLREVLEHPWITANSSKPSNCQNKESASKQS
# UniProt Q96GD4, whole entry: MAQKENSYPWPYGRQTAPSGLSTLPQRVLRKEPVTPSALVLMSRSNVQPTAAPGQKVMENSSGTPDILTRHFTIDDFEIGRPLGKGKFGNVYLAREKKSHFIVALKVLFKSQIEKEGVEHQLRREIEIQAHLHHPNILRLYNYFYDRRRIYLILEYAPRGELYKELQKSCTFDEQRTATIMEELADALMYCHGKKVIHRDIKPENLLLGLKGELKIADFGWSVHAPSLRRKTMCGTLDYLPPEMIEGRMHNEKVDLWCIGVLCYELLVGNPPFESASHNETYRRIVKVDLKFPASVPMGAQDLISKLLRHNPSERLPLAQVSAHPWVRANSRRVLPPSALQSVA
# UniProt Q9UQB9: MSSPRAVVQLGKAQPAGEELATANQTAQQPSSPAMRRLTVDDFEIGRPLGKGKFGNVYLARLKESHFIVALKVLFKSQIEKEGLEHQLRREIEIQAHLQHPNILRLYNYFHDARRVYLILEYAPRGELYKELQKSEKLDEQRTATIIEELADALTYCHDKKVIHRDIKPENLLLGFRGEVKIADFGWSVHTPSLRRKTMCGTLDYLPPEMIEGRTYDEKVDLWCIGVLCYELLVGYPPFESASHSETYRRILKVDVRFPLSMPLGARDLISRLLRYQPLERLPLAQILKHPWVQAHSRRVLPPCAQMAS
# UniProt P51813: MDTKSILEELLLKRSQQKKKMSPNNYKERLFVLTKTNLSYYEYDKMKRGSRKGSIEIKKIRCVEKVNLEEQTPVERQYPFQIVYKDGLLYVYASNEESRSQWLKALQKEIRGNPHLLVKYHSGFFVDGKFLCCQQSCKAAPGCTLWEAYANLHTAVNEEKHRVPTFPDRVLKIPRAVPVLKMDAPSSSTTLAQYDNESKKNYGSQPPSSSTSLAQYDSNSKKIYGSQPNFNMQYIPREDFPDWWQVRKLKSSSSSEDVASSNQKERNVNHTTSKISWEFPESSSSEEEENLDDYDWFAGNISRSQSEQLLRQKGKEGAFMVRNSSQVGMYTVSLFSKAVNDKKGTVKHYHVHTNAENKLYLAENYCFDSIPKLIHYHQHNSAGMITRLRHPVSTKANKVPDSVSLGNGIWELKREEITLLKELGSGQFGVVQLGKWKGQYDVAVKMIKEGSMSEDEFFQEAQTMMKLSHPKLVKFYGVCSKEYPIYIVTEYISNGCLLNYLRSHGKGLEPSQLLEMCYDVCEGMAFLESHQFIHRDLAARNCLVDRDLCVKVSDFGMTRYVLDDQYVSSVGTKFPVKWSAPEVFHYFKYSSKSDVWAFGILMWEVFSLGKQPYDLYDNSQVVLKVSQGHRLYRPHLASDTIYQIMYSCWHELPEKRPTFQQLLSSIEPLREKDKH
# UniProt Q9UQM7, whole entry: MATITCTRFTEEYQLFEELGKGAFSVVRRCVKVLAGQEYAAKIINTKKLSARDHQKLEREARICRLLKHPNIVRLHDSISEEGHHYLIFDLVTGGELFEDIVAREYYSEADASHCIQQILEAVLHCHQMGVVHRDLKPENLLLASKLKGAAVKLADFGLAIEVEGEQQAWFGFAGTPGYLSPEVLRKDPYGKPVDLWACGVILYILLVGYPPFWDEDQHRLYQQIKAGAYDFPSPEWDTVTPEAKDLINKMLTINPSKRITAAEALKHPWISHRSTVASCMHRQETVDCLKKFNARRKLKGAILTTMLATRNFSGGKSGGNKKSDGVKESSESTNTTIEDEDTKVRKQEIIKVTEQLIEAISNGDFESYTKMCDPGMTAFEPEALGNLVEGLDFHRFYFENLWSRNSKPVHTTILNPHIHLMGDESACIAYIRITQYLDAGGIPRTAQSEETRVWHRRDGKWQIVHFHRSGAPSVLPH
# UniProt Q13555: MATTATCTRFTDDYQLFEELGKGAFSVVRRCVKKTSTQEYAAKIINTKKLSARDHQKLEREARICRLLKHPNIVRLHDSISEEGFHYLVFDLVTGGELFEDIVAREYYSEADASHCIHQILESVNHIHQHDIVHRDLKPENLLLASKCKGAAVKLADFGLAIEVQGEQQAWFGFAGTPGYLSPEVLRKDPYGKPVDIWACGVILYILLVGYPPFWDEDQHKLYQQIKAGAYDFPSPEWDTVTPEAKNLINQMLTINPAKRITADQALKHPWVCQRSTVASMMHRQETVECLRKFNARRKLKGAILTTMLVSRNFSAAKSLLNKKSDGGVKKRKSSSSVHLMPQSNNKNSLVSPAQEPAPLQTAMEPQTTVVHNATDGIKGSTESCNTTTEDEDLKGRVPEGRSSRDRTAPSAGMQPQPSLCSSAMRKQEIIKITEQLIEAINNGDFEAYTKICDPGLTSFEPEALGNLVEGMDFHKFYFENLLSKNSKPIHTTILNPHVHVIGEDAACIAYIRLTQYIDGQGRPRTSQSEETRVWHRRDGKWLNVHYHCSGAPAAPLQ
# UniProt Q15131: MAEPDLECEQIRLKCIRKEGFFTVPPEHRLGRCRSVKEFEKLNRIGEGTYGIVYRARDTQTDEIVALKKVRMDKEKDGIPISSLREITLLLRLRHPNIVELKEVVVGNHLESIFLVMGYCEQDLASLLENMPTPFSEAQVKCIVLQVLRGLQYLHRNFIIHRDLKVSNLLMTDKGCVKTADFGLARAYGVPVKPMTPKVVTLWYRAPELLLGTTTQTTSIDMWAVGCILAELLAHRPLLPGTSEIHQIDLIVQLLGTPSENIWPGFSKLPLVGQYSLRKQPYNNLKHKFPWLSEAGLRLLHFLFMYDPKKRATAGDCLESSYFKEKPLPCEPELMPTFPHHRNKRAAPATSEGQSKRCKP
# UniProt Q00526: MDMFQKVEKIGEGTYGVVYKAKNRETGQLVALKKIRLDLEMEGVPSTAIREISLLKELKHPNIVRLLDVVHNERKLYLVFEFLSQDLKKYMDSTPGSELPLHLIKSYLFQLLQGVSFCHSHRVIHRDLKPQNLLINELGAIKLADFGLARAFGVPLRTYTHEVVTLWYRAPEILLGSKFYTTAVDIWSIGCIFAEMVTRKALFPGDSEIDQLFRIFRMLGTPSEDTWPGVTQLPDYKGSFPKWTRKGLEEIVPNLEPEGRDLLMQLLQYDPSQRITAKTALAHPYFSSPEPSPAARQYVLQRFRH
# UniProt P11802: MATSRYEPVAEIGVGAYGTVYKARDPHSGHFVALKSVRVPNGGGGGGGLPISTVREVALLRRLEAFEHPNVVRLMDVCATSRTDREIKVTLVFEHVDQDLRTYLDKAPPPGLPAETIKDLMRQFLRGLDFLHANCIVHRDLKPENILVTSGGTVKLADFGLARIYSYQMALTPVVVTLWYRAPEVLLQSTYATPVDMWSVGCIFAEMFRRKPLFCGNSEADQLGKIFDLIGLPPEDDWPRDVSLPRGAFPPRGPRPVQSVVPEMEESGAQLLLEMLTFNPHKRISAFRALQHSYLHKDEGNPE
# UniProt Q00535, whole entry, looked up: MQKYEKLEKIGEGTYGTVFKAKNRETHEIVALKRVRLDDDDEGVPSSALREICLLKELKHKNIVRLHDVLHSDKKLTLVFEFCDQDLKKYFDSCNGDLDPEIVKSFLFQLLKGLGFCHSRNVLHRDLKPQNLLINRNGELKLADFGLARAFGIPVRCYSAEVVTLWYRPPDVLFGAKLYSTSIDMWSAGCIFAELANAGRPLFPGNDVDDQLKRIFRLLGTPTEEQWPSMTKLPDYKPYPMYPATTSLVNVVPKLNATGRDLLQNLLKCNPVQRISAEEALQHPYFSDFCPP
# UniProt Q00534, whole entry: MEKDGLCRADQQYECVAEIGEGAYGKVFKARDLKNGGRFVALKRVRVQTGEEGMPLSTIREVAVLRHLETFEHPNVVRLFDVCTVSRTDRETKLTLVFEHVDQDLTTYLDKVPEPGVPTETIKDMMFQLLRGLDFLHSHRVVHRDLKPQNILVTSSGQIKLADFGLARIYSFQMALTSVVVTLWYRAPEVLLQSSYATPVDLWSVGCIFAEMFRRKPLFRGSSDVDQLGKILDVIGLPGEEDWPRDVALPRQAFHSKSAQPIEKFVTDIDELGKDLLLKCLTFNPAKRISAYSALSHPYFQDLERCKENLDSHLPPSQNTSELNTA
# Where a name gives a salt, the structure may show the parent alone. The list shows a part of the results. Hit calls seldom repeat between salt and free forms of one compound.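 Kinases, fused to nanoluciferase, were expressed in K562 cells; luminescence was measured every 4 h from 2 to 18 h as percent of control (DMSO = 100%, positive control = 0%). A time point is decreased if signal falls significantly (2 sigma). Hits were called by the authors by a rule that is not shown; the count of time points alone does not decide it.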
# Experiments:
# Experiment in all cases: kinase-Nluc reporter destabilization hit call (1 = scored as downregulated) (binary); higher = compound decreases kinase abundance
# Settings in all cases: K562, 2-18 h
# ABL1 = ABL1 (UniProt P00519)
# AKT1 = AKT1 (UniProt P31749)
# ALK = ALK (UniProt Q9UM73)
# ARAF = ARAF (UniProt P10398)
# AURKA = AURKA (UniProt O14965)
# AURKB = AURKB (UniProt Q96GD4)
# AURKC = AURKC (UniProt Q9UQB9)
# BLK = BLK (UniProt P51451)
# BMX = BMX (UniProt P51813)
# BRAF = BRAF (UniProt P15056)
# BRAF_V600E = tested on: BRAF_V600E
# BTK = BTK (UniProt Q06187)
# CAMK2A = CAMK2A (UniProt Q9UQM7)
# CAMK2G = CAMK2G (UniProt Q13555)
# CDK10 = CDK10 (UniProt Q15131)
# CDK2 = CDK2 (UniProt P24941)
# CDK3 = CDK3 (UniProt Q00526)
# CDK4 = CDK4 (UniProt P11802)
# CDK5 = CDK5 (UniProt Q00535)
# CDK6 = CDK6 (UniProt Q00534)
SMILES,kinase-Nluc reporter destabilization hit call (ABL1; 10 µM),kinase-Nluc reporter destabilization hit call (AKT1; 10 µM),kinase-Nluc reporter destabilization hit call (ALK; 10 µM),kinase-Nluc reporter destabilization hit call (ARAF; 10 µM),kinase-Nluc reporter destabilization hit call (AURKA; 10 µM),kinase-Nluc reporter destabilization hit call (AURKB; 10 µM),kinase-Nluc reporter destabilization hit call (AURKC; 10 µM),kinase-Nluc reporter destabilization hit call (BLK; 10 µM),kinase-Nluc reporter destabilization hit call (BMX; 10 µM),kinase-Nluc reporter destabilization hit call (BRAF; 10 µM),kinase-Nluc reporter destabilization hit call (BRAF_V600E; 10 µM),kinase-Nluc reporter destabilization hit call (BTK; 10 µM),kinase-Nluc reporter destabilization hit call (CAMK2A; 10 µM),kinase-Nluc reporter destabilization hit call (CAMK2G; 10 µM),kinase-Nluc reporter destabilization hit call (CDK10; 10 µM),kinase-Nluc reporter destabilization hit call (CDK2; 10 µM),kinase-Nluc reporter destabilization hit call (CDK3; 10 µM),kinase-Nluc reporter destabilization hit call (CDK4; 10 µM),kinase-Nluc reporter destabilization hit call (CDK5; 10 µM),kinase-Nluc reporter destabilization hit call (CDK6; 10 µM),kinase-Nluc reporter destabilization hit call (ABL1; 2.5 µM),kinase-Nluc reporter destabilization hit call (AKT1; 2.5 µM),kinase-Nluc reporter destabilization hit call (ALK; 2.5 µM),kinase-Nluc reporter destabilization hit call (ARAF; 2.5 µM),kinase-Nluc reporter destabilization hit call (AURKA; 2.5 µM),kinase-Nluc reporter destabilization hit call (AURKB; 2.5 µM),kinase-Nluc reporter destabilization hit call (AURKC; 2.5 µM),kinase-Nluc reporter destabilization hit call (BLK; 2.5 µM),kinase-Nluc reporter destabilization hit call (BMX; 2.5 µM),kinase-Nluc reporter destabilization hit call (BRAF; 2.5 µM),kinase-Nluc reporter destabilization hit call (BRAF_V600E; 2.5 µM),kinase-Nluc reporter destabilization hit call (BTK; 2.5 µM),kinase-Nluc reporter destabilization hit call (CAMK2A; 2.5 µM),kinase-Nluc reporter destabilization hit call (CAMK2G; 2.5 µM),kinase-Nluc reporter destabilization hit call (CDK10; 2.5 µM),kinase-Nluc reporter destabilization hit call (CDK2; 2.5 µM),kinase-Nluc reporter destabilization hit call (CDK3; 2.5 µM),kinase-Nluc reporter destabilization hit call (CDK4; 2.5 µM),kinase-Nluc reporter destabilization hit call (CDK5; 2.5 µM),kinase-Nluc reporter destabilization hit call (CDK6; 2.5 µM)
CC(C)(C)n1nc(-c2cccc3ccccc23)c2c(N)ncnc21 [1-Naphthyl PP1 (hydrochloride)],inactive: 0,inactive: 0,inactive: 0,inactive: 0,inactive: 0,inactive: 0,inactive: 0,inactive: 0,inactive: 0,inactive: 0,inactive: 0,inactive: 0,inactive: 0,inactive: 0,inactive: 0,inactive: 0,inactive: 0,inactive: 0,inactive: 0,inactive: 0,,,,,,,,,,,,,,,,,,,,
C[S+]([O-])c1ccc(-c2nc(-c3ccc(F)cc3)c(-c3ccncc3)[nH]2)cc1 (stereo not given),inactive: 0,inactive: 0,inactive: 0,inactive: 0,inactive: 0,inactive: 0,inactive: 0,inactive: 0,inactive: 0,inactive: 0,inactive: 0,inactive: 0,inactive: 0,inactive: 0,inactive: 0,inactive: 0,inactive: 0,inactive: 0,inactive: 0,inactive: 0,,,,,,,,,,,,,,,,,,,,
COc1ccc(S(=O)(=O)N(CCO)c2ccccc2CN(C)C/C=C/c2ccc(Cl)cc2)cc1 [KN-93 (hydrochloride)],,,,,,,,,,,,,,,,,,,,,active: 1,inactive: 0,inactive: 0,inactive: 0,inactive: 0,inactive: 0,inactive: 0,inactive: 0,inactive: 0,inactive: 0,inactive: 0,inactive: 0,inactive: 0,inactive: 0,inactive: 0,inactive: 0,inactive: 0,inactive: 0,inactive: 0,inactive: 0
CN(C)C(=N)NC(=N)N [Metformin (hydrochloride)],inactive: 0,inactive: 0,inactive: 0,inactive: 0,inactive: 0,inactive: 0,inactive: 0,inactive: 0,inactive: 0,inactive: 0,inactive: 0,inactive: 0,inactive: 0,inactive: 0,inactive: 0,inactive: 0,inactive: 0,inactive: 0,inactive: 0,inactive: 0,,,,,,,,,,,,,,,,,,,,
CN(C)C/C=C/C(=O)Nc1cc2c(Nc3ccc(F)c(Cl)c3)ncnc2cc1O[C@H]1CCOC1 [Afatinib (dimaleate)],,,,,,,,,,,,,,,,,,,,,inactive: 0,inactive: 0,inactive: 0,inactive: 0,inactive: 0,inactive: 0,inactive: 0,inactive: 0,inactive: 0,inactive: 0,inactive: 0,inactive: 0,inactive: 0,inactive: 0,inactive: 0,inactive: 0,inactive: 0,inactive: 0,inactive: 0,inactive: 0
N#CC[C@H](C1CCCC1)n1cc(-c2ncnc3[nH]ccc23)cn1 [Ruxolitinib],inactive: 0,inactive: 0,inactive: 0,inactive: 0,inactive: 0,inactive: 0,inactive: 0,inactive: 0,inactive: 0,inactive: 0,inactive: 0,inactive: 0,inactive: 0,inactive: 0,inactive: 0,inactive: 0,inactive: 0,inactive: 0,inactive: 0,inactive: 0,,,,,,,,,,,,,,,,,,,,
O=C(c1nn(-c2ccc(CN3CCOCC3)cc2)c2c1CS(=O)(=O)c1c(F)cccc1-2)N1CCOCC1,inactive: 0,inactive: 0,inactive: 0,inactive: 0,inactive: 0,inactive: 0,inactive: 0,inactive: 0,inactive: 0,inactive: 0,inactive: 0,inactive: 0,inactive: 0,inactive: 0,inactive: 0,inactive: 0,inactive: 0,inactive: 0,inactive: 0,inactive: 0,,,,,,,,,,,,,,,,,,,,
CN1CCCN(C(=O)c2cccc(-c3ccc(/C=C4/C(=O)Nc5ccc(Cl)cc54)o3)c2)CC1 [CX-6258 (hydrochloride hydrate)],,,,,,,,,,,,,,,,,,,,,inactive: 0,inactive: 0,inactive: 0,inactive: 0,inactive: 0,inactive: 0,inactive: 0,inactive: 0,inactive: 0,inactive: 0,inactive: 0,inactive: 0,inactive: 0,inactive: 0,inactive: 0,inactive: 0,inactive: 0,inactive: 0,inactive: 0,inactive: 0
CS(=O)(=O)N1CCN(Cc2cc3nc(-c4cccc5[nH]ncc45)nc(N4CCOCC4)c3s2)CC1 [Pictilisib (dimethanesulfonate)],inactive: 0,inactive: 0,inactive: 0,inactive: 0,inactive: 0,inactive: 0,inactive: 0,inactive: 0,inactive: 0,inactive: 0,inactive: 0,inactive: 0,inactive: 0,inactive: 0,inactive: 0,inactive: 0,inactive: 0,inactive: 0,inactive: 0,inactive: 0,,,,,,,,,,,,,,,,,,,,
